{"source": "PubChem BioAssay AID1259308 (NCATS, 2017)", "aim": "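Genes whose loss raises luciferase production in HEK293 cells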 (primary screen)", "system": "human HEK293 embryonic kidney cells stably expressing firefly luciferase (HEK-CMV-Luc2-Hygro)", "knock-down reagent": "single siRNA against human genes, 0.8 pmol siRNA per well", "timing": "72 h", "read-out": "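Luciferase light (ONE-Glo) measured on one replicate plate set and viability (CellTiter-Glo) on the other, scaled to a negative control siRNA, with robust z-scores and luciferase per cell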", "reading the numbers": "total luciferase, z-score and total luciferase, % of control: higher = more reporter protein produced", "active means": "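An siRNA counts as active if its total luciferase robust z-score exceeds 3; genes with two or more such siRNAs out of three were retested with fresh siRNAs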", "meaning of the calls": "active = raised luciferase; inactive = no rise", "note": "Shown is a random part of about 59,000 reagents tested. About 1,510 of all reagents (2.6%) count as active. 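Calls use total luciferase alone and ignore viability, so some active siRNAs may act by altering cell number.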 Further read-outs or replicates are left out here."}
{"gene symbol":"SLA2","PubChem SID":"SID160751838","total luciferase, z-score":0.253,"total luciferase, % of control":86.9,"Call":"inactive"}
{"gene symbol":"SLA2","PubChem SID":"SID160751840","total luciferase, z-score":0.0782,"total luciferase, % of control":83.4,"Call":"inactive"}
{"gene symbol":"SLA2","PubChem SID":"SID160751841","total luciferase, z-score":-1.72,"total luciferase, % of control":47.6,"Call":"inactive"}
{"gene symbol":"GDE1","PubChem SID":"SID160741029","total luciferase, z-score":-0.908,"total luciferase, % of control":63.8,"Call":"inactive"}
{"gene symbol":"GDE1","PubChem SID":"SID160741030","total luciferase, z-score":-2.01,"total luciferase, % of control":41.9,"Call":"inactive"}
{"gene symbol":"GDE1","PubChem SID":"SID160741031","total luciferase, z-score":-0.748,"total luciferase, % of control":67,"Call":"inactive"}
{"gene symbol":"LHX6","PubChem SID":"SID160737971","total luciferase, z-score":-0.247,"total luciferase, % of control":77,"Call":"inactive"}
{"gene symbol":"LHX6","PubChem SID":"SID160737972","total luciferase, z-score":0.441,"total luciferase, % of control":90.7,"Call":"inactive"}
{"gene symbol":"LHX6","PubChem SID":"SID160737973","total luciferase, z-score":-2.52,"total luciferase, % of control":31.7,"Call":"inactive"}
{"gene symbol":"ERICH6","PubChem SID":"SID160757097","total luciferase, z-score":0.178,"total luciferase, % of control":85.4,"Call":"inactive"}
{"gene symbol":"ERICH6","PubChem SID":"SID160757098","total luciferase, z-score":-0.903,"total luciferase, % of control":63.9,"Call":"inactive"}
{"gene symbol":"ERICH6","PubChem SID":"SID160757099","total luciferase, z-score":0.531,"total luciferase, % of control":92.4,"Call":"inactive"}
{"gene symbol":"BTBD9","PubChem SID":"SID160754957","total luciferase, z-score":-0.15,"total luciferase, % of control":78.9,"Call":"inactive"}
{"gene symbol":"BTBD9","PubChem SID":"SID160754958","total luciferase, z-score":0.627,"total luciferase, % of control":94.4,"Call":"inactive"}
{"gene symbol":"BTBD9","PubChem SID":"SID160754959","total luciferase, z-score":-0.641,"total luciferase, % of control":69.1,"Call":"inactive"}
{"gene symbol":"MEGF9","PubChem SID":"SID160758870","total luciferase, z-score":-0.638,"total luciferase, % of control":69.2,"Call":"inactive"}
{"gene symbol":"MEGF9","PubChem SID":"SID160758879","total luciferase, z-score":-1.67,"total luciferase, % of control":48.7,"Call":"inactive"}
{"gene symbol":"MEGF9","PubChem SID":"SID160758889","total luciferase, z-score":0.501,"total luciferase, % of control":91.9,"Call":"inactive"}
{"gene symbol":"EXD1","PubChem SID":"SID160759881","total luciferase, z-score":0.584,"total luciferase, % of control":93.5,"Call":"inactive"}
{"gene symbol":"EXD1","PubChem SID":"SID160759884","total luciferase, z-score":0.235,"total luciferase, % of control":86.6,"Call":"inactive"}
{"gene symbol":"EXD1","PubChem SID":"SID160759885","total luciferase, z-score":0.585,"total luciferase, % of control":93.5,"Call":"inactive"}
{"gene symbol":"ZNF569","PubChem SID":"SID160730652","total luciferase, z-score":1.93,"total luciferase, % of control":120,"Call":"inactive"}
{"gene symbol":"ZNF569","PubChem SID":"SID160730653","total luciferase, z-score":-0.324,"total luciferase, % of control":75.4,"Call":"inactive"}
{"gene symbol":"ZNF569","PubChem SID":"SID160758676","total luciferase, z-score":0.821,"total luciferase, % of control":98.2,"Call":"inactive"}
{"gene symbol":"GET1","PubChem SID":"SID160718870","total luciferase, z-score":-0.284,"total luciferase, % of control":76.2,"Call":"inactive"}
{"gene symbol":"GET1","PubChem SID":"SID160718871","total luciferase, z-score":-1.7,"total luciferase, % of control":48.1,"Call":"inactive"}
{"gene symbol":"GET1","PubChem SID":"SID160718872","total luciferase, z-score":0.552,"total luciferase, % of control":92.9,"Call":"inactive"}
{"gene symbol":"OR10A7","PubChem SID":"SID160755897","total luciferase, z-score":-0.601,"total luciferase, % of control":69.9,"Call":"inactive"}
{"gene symbol":"OR10A7","PubChem SID":"SID160755898","total luciferase, z-score":-0.499,"total luciferase, % of control":72,"Call":"inactive"}
{"gene symbol":"OR10A7","PubChem SID":"SID160755899","total luciferase, z-score":-0.15,"total luciferase, % of control":78.9,"Call":"inactive"}
{"gene symbol":"NUP160","PubChem SID":"SID160735909","total luciferase, z-score":-0.526,"total luciferase, % of control":71.4,"Call":"inactive"}
{"gene symbol":"NUP160","PubChem SID":"SID160735910","total luciferase, z-score":0.188,"total luciferase, % of control":85.6,"Call":"inactive"}
{"gene symbol":"NUP160","PubChem SID":"SID160735911","total luciferase, z-score":-1,"total luciferase, % of control":62,"Call":"inactive"}
